Earlier results, collected in patent US20120289541A1 (NOVARTIS AG, priority 2010, published 2012).
Values after ≈ are worked out from the molar mass of the structure shown. At least one structure is not confirmed: it was looked up by name or label, or the drawing left a doubt.

Columns and labels:
Moraxella catarrhalis = settings: cited from earlier work
Streptococcus pneumoniae = settings: cited from earlier work

For `COc1c(N2C[C@@H]3CCCN[C@@H]3C2)c(F)cc2c(=O)c(C(=O)O)cn(C3CC3)c12` [moxifloxacin], the MIC90 (Moraxella catarrhalis) is listed as 0.06 µg/mL (≈ 0.149 µM) and the MIC90 (Streptococcus pneumoniae) is listed as 0.13 µg/mL (≈ 0.324 µM).
